Assay results from patent US9301530B2 (priority 2011, dated 2016).
Like-named read-outs stand apart in the source and are kept apart here. Some entries share one result that the patent states for a list of compounds.

How the values were obtained:
Assay type in all cases: in vivo
Phytophthora infestans [1] = conditions: 200 ppm; tomato leaf disks; inoculated 1 day after application; assessed 5-7 days after application; vs untreated control leaf discs
Phytophthora infestans [2] = conditions: 200 ppm; potato plants cv. Bintje; inoculated 2 days after application; assessed 5-7 days after application; vs untreated control plants
Phytophthora infestans [3] = conditions: 200 ppm; potato plants cv. Bintje; inoculated 6 days after application; assessed 9-11 days after application; vs untreated control plants
Phytophthora infestans [4] = conditions: 200 ppm; potato plants cv. Bintje; inoculated one day before application; assessed 3-4 days after application; vs untreated control plants
Plasmopara viticola [5] = test: Plasmopara viticola/Grape/Leaf Disc Preventative (Grape Downy Mildew); conditions: 200 ppm; grape vine leaf disks; inoculated 1 day after application; assessed 6-8 days after application; vs untreated control leaf discs
Plasmopara viticola [6] = test: Plasmopara viticola/Grape/Preventative (Grape Downy Mildew); conditions: 200 ppm; grape seedlings cv. Gutedel; inoculated one day after application; assessed 6-8 days after application; vs untreated control plants
Plasmopara viticola [7] = test: Plasmopara viticola/Grape/Long Lasting Preventative (Grape Downy Mildew); conditions: 200 ppm; grape seedlings cv. Gutedel; inoculated 6 days after application; assessed 11-13 days after application; vs untreated control plants
Plasmopara viticola [8] = test: Plasmopara viticola/Grape/Curative (Grape Downy Mildew); conditions: 200 ppm; grape seedlings cv. Gutedel; inoculated one day before application; assessed 4-6 days after application; vs untreated control plants

Measured: disease control

O=C(N[C@@H]1CCCc2ccccc21)c1cccc(N2CCN(C(=O)Cn3nc(C(F)F)cc3C(F)F)CC2)c1 [I.z.001, 3-{4-[2-(3,5-bis-difluoromethyl-pyrazol-1-yl)-acetyl]-piperazin-1-yl}-N—(R)-1,2,3,4-tetrahydro-naphthalen-1-yl-benzamide]
at least 80%: all assays above
